Data as given in PubChem BioAssay AID1671190 (National Center for Advancing Translational Sciences (NCATS), 2021).
Out of some 580,000 compounds screened, about 6,100 (1.1%) were called active. The shares of active, inactive and inconclusive entries below differ from those in the screen. Calls come from the whole dose curve; as a rule, active = well fitted inhibition curve with a large enough effect; inconclusive = small, poorly fitted or top-dose-only effect, or another doubt; inactive = no such curve, though single readings can be large or run the other way. Potencies beside an inconclusive call are fits to weak or partial responses and may not hold up.

The chains behind the UniProt entries cited, without tags or fusion partners. Where a name states a change or a piece, a line headed by the entry shows the natural chain unless it says otherwise.
UniProt P18054: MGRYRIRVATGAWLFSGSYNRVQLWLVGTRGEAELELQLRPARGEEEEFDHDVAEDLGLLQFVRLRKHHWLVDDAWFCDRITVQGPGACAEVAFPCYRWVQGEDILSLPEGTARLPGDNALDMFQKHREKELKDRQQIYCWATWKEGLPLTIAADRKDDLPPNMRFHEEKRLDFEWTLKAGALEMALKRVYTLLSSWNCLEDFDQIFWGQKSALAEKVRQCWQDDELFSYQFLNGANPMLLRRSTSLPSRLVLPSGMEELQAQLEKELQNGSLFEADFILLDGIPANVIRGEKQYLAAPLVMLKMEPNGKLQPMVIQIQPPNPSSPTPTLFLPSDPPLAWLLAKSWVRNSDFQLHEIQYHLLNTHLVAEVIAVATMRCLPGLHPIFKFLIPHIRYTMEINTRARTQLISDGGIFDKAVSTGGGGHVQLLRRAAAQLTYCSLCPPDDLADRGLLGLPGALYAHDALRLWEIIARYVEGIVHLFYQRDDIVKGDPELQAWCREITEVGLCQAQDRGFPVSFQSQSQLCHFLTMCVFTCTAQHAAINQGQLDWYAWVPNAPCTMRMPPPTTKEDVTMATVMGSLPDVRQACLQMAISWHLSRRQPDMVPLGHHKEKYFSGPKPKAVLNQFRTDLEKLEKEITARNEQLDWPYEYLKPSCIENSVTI

Each molecule was assayed against Polyunsaturated fatty acid lipoxygenase ALOX12 (Homo sapiens) (UniProt P18054) (assay: Primary qHTS assay for inhibitors of human arachidonate 12S-lipoxygenase (ALOX12): Round 2). Conditions: purified 12hLO, xylenol orange hydroperoxide absorbance; activity change, negative = inhibition: at 108 µM (top of the series) unless noted.
Outline: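 Hydroperoxide product was detected by ferrous iron/xylenol orange as the 573 to 405 nm absorbance ratio. Arachidonic acid at 40 uM (final) was turned over for 30 min at room temperature by 150 nM human 12hLO, pH 7.0 Hepes buffer, after 15 min compound preincubation.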
% is set by controls: 0 for no effect and ±100 for the full control effect; potency is the fitted concentration of half-maximal effect.

Compound | Potency | activity change, negative = inhibition
Cc1ccc(NC(=O)c2cc(S(=O)(=O)Nc3ccc(C)cc3)cs2)cc1 | inconclusive: 56.2 µM [inhibitor, partial curve, poor fit] | –
C=CCc1ccccc1OCC(O)CN1CCN(c2ccccc2F)CC1 (stereo not given) | inconclusive: 39.8 µM [inhibitor, partial curve, poor fit] | –
COCCSc1ccc2c(c1)OCCCO2 | – | inactive: -15.4%
Cc1[nH]c(=S)sc1Cc1ccc(Cl)c(Cl)c1 | active: 31.6 µM | –
CC1(c2ccc(OC(F)F)cc2)NC(=O)N(CC(=O)Nc2ccc3c(c2)OCO3)C1=O (stereo not given) | – | inactive: 3.24%
CCn1cnc2c([N+](=O)[O-])c(NS(=O)(=O)c3ccc(C)cc3)ccc21 | – | inactive: -3.73%
COc1ccccc1OC(C)C(=O)Nc1nc(-c2ccc(S(=O)(=O)N3CCOCC3)cc2)cs1 (stereo not given) | – | inactive: -2.63%
CCOC(C)C(=O)NN (stereo not given) | inconclusive: 50.1 µM [inhibitor, partial curve, poor fit] | –
Cc1ccc(S(=O)(=O)Nc2cccc(NC(=O)CN3CCCCC3)c2)cc1 | inconclusive: 0.447 µM [inhibitor, full curve, poor fit] | –
Clc1cc(Br)ccc1OCCn1ccnc1 | active: 0.708 µM | –
CN1C(=O)CS(=O)(=O)C12CCN(C(=O)Cc1ccc(Cl)cc1)CC2 | – | inactive: 15.7%
COc1cccc(CCN2CC[C@H]3CN(C(=O)Nc4ccc(F)cc4)CC[C@H]3CC2=O)c1OC | – | inactive: 4.68%
OCC(O)C1OC(Nc2ccc(Br)cc2)C(O)C1O (stereo not given) | inconclusive: 70.8 µM [inhibitor, single point] | –
O=C(NN1C(=O)/C(=C\c2ccc(O)c([N+](=O)[O-])c2)SC1=S)c1ccccc1Cl | inconclusive: 44.7 µM [inhibitor, partial curve, poor fit] | –
CN(C(=O)/C=C/c1ccccc1)C1CCCCC1 | – | inactive: 0%
C/C(=N\NC(N)=S)c1ccc(Br)cc1 | inconclusive: 50.1 µM [inhibitor, partial curve, poor fit] | –
CCNC(=O)CC1C(=O)N(c2ccc(F)cc2)C(=O)N1Cc1ccccn1 (stereo not given) | – | inactive: -1.54%
CC(=O)c1cc(-c2ccccc2)[nH]c1N1CCCC1 | inconclusive: 79.4 µM [inhibitor, partial curve, poor fit] | –
c1ccc2cc(OCCN3CCCC3)ccc2c1 | inconclusive: 1.41 µM [inhibitor, full curve, poor fit] | –
O=C(O)C1C(c2ccccc2)C(C(=O)Oc2ccccc2)C1c1ccccc1 (stereo not given) | – | inconclusive: -30.9% [inhibitor]
Brc1ccc(-c2cnc(-c3cccs3)o2)cc1 | inconclusive: 56.2 µM [inhibitor, partial curve, poor fit] | –
Cc1nc2c(c(=O)n1CCC1=CCCCC1)c1nc3ccccc3nc1n2/N=C/c1ccco1 | – | inactive: -0.119%
CCOc1cc(CNCc2ccco2)ccc1OC | – | inactive: -15.5%
C=Cn1cccc1-c1ccc(OC)cc1 | inconclusive: 50.1 µM [inhibitor, partial curve, poor fit] | –

Compound | Potency | activity change, negative = inhibition
Cc1ccc2[nH]c(C)c(C(O)CN3CCC(Cc4ccccc4)CC3)c2c1 (stereo not given) | inconclusive: 44.7 µM [inhibitor, partial curve, poor fit] | –
O=C(COC(=O)c1cccnc1Nc1cccc(C(F)(F)F)c1)NCc1ccccc1Cl | – | inactive: -14.3%
O=C(COc1ccc(Cl)cc1)NCCc1nnc2ccccn12 | inconclusive: 100 µM [inhibitor, single point] | –
Cc1ccc(NCC(=O)Nc2cccc(F)c2)cc1S(=O)(=O)N1CCCCCC1 | – | inactive: -4.57%
O=C(Nc1ccccc1)OCC1CCCO1 (stereo not given) | inconclusive: 141 µM [inhibitor, single point] | –
O=C(CNC(=O)c1cccs1)NC1=NCCS1 | inconclusive: 25.1 µM [inhibitor, partial curve, poor fit] | –
Cc1ccc(C(=O)NCCN2CCc3ccccc3C2)cc1F | inconclusive: 35.5 µM [inhibitor, partial curve, poor fit] | –
CCCCc1c(-c2cccc(Br)c2)ncn1CCc1ccccc1OC | inconclusive: 44.7 µM [inhibitor, partial curve, poor fit] | –
O=C(NCC(O)c1ccc(F)cc1F)c1ccc(=O)[nH]c1 (stereo not given) | – | inactive: 14.7%
Cc1ccc(C(=O)N(C)CC(=O)Nc2cccc(F)c2)cc1S(=O)(=O)N1CCCCC1 | – | inactive: -7.47%
S=c1[nH]c(-c2cccc(Cl)c2)cs1 | active: 8.91 µM | –
COCC(=O)N1c2nc(-c3ccco3)nn2C2(CCCCC2)[C@@H]2CCCC[C@@H]21 | inconclusive: 50.1 µM [inhibitor, partial curve, poor fit] | –
Cc1ccc(NC(=O)Cn2nnc(C(=O)NCCc3ccccc3)c2N)cc1Cl | inconclusive: 44.7 µM [inhibitor, partial curve, poor fit] | –
COc1ccc([C@H]2N[C@]3(CCCN(Cc4ccc(C)cc4)C3=O)[C@H]3C(=O)N(Cc4ccccc4)C(=O)[C@@H]23)cc1 | inconclusive: 100 µM [inhibitor, single point] | –
Cc1ccc(CNC(=O)c2ccc(N3CC4CC(C3)[C@H]3CCCC(=O)N3C4)nc2)cc1 (stereo not given in full) | – | inactive: -3.89%
Cc1cc(Cl)ccc1NC(=O)COc1c(CO)cc(F)cc1CO | inconclusive: 112 µM [inhibitor, single point] | –
S=C(NCc1cccnc1)Nc1ccc(Cl)c(Cl)c1 | inconclusive: 141 µM [inhibitor, single point] | –
Cc1ccc2c(CSc3nc(N)cc(N)n3)cc(=O)oc2c1 | inconclusive: 35.5 µM [inhibitor, partial curve, poor fit] | –
CC(C)(C)C(=O)N1CCC2(CC1)C(=O)NCN2Cc1ccc(Cl)cc1 | – | inactive: -2.18%
CCOC(=O)CCNC(=O)C1=CN2CCN(Cc3c(C)noc3C)C(=O)N=C2O1 | inconclusive: 126 µM [inhibitor, single point] | –
COc1ccc(CCN2CC(C(=O)NCCc3ccc(F)cc3)CCC2=O)cc1 (stereo not given) | – | inactive: 1.99%
CN(C)Cc1nc2c(c(=O)[nH]1)C(C)(C)Cc1ccccc1-2 | inactive | –
CCC12CN3CC(CC)(CN(C1)C3c1cc(Br)ccc1OC)C2=O (stereo not given) | inconclusive: 44.7 µM [inhibitor, partial curve, poor fit] | –
Cc1c(NC(NC(=O)CC(C)C)C(Cl)(Cl)Cl)c(=O)n(-c2ccccc2)n1C (stereo not given) | inconclusive: 44.7 µM [inhibitor, partial curve, poor fit] | –

Compound | Potency | activity change, negative = inhibition
Cc1nc(-c2ccc(S(=O)(=O)N3CCN(c4ccc(F)cc4)CC3)cc2)co1 | inactive | –
CC(C)(C)OC(=O)N1CCCC1C(=O)NCc1ccc(Cl)cc1Cl (stereo not given) | – | inactive: 22.7%
N=C1/C(=C/c2ccc(-c3cccc(C(=O)O)c3)o2)C(=O)N=C2SC=C(c3ccccc3)N12 | active: 28.2 µM | –
Cc1ccc(-c2nn(-c3ccccc3)cc2C=C2C(=O)CC(C)(C)CC2=O)cc1 | active: 7.94 µM | –
CC(/C=C/c1ccco1)=N\NC(=O)C(O)c1ccccc1 (stereo not given) | – | inactive: 3.36%
Cc1cc2nc(CN(Cc3ccccc3)Cc3nc4cc(C)c(C)cc4[nH]3)[nH]c2cc1C | inconclusive: 79.4 µM [inhibitor, single point] | –
CCc1ccc(N(C)S(=O)(=O)c2ccc3[nH]cc(C(=O)NCC4CCCO4)c(=O)c3c2)cc1 (stereo not given) | inconclusive: 56.2 µM [inhibitor, partial curve, poor fit] | –
O=C1NC(=O)C(=Cc2ccccc2[N+](=O)[O-])S1 | inconclusive: 39.8 µM [inhibitor, partial curve, poor fit] | –
O=C(C1CCN(Cc2ccc(OCc3ccccc3)cc2)CC1)N1CCCC1 | inconclusive: 2.24 µM [inhibitor, full curve, poor fit] | –
CC(=O)N1CCOc2cc(S(=O)(=O)N(C)Cc3ccccc3)c(Cl)cc21 | inconclusive: 70.8 µM [inhibitor, partial curve, poor fit] | –
Cc1ccccc1-c1nc(CS(=O)(=O)CC(=O)NCc2ccccc2Br)c(C)o1 | – | inactive: -29.4%
COCc1cc(N2CCNC[C@H]2C)ccc1N1CCN(Cc2ccccc2)[C@H](C)C1 | inconclusive: 50.1 µM [inhibitor, partial curve, poor fit] | –
O=C(COC(=O)c1ccccn1)NC1CCCCC1 | inconclusive: 17.8 µM [inhibitor, partial curve, poor fit] | –
COc1ccc(-n2ccnc2CN2CCC(Cc3nncn3C)CC2)cc1 | – | inactive: 22.6%
COc1ccc(Br)cc1CN(C)CC(O)COc1ccc(Br)cc1 (stereo not given) | inconclusive: 100 µM [inhibitor, single point] | –
CCOC(=O)c1ccc(OCc2ccccc2C#N)cc1 | inconclusive: 126 µM [inhibitor, single point] | –
CC(C)CNC(=O)CC(c1ccc(F)cc1F)c1c[nH]c2ccccc12 (stereo not given) | inconclusive: 50.1 µM [inhibitor, partial curve, poor fit] | –
Cc1cccc(C)c1NC(=O)C(c1ccc(-c2ccccc2)cc1)n1c(=O)c(-c2ccco2)nc2ccccc21 (stereo not given) | active: 12.6 µM | –
O=c1[nH]c(/C=C\c2cccc(C(F)(F)F)c2)nc(O)c1[N+](=O)[O-] | inconclusive: 28.2 µM [inhibitor, single point] | –
Cn1c(NC(=O)c2ccc3c(c2)OCO3)cc(=O)n(C)c1=O | inconclusive: 89.1 µM [inhibitor, single point] | –
C=CCn1c(SCc2c(C(=O)OC)sc(N)c2C(=O)OC)nnc1-c1ccc(Br)cc1 | inconclusive: 50.1 µM [inhibitor, partial curve, poor fit] | –
Cc1nonc1NC(=O)c1ccc(Cl)c(S(=O)(=O)N2CCCCC2)c1 | inconclusive: 0.794 µM [inhibitor, full curve, poor fit] | –

4 structures out of the list, ordered by length of the SMILES, falling:
Compound | Potency | activity change, negative = inhibition
Cc1cccc(C)c1NC(=O)C(c1ccc(-c2ccccc2)cc1)n1c(=O)c(-c2ccco2)nc2ccccc21 (stereo not given) | active: 12.6 µM | –
C=CCn1c(SCc2c(C(=O)OC)sc(N)c2C(=O)OC)nnc1-c1ccc(Br)cc1 | inconclusive: 50.1 µM [inhibitor, partial curve, poor fit] | –
CC(=O)N1CCOc2cc(S(=O)(=O)N(C)Cc3ccccc3)c(Cl)cc21 | inconclusive: 70.8 µM [inhibitor, partial curve, poor fit] | –
CCOC(=O)c1ccc(OCc2ccccc2C#N)cc1 | inconclusive: 126 µM [inhibitor, single point] | –
